Reference: article PMC10409745

Protein sequences, listed by entry. Tags and fused reporters are not part of them.
UniProt A0A3Q7ELQ2: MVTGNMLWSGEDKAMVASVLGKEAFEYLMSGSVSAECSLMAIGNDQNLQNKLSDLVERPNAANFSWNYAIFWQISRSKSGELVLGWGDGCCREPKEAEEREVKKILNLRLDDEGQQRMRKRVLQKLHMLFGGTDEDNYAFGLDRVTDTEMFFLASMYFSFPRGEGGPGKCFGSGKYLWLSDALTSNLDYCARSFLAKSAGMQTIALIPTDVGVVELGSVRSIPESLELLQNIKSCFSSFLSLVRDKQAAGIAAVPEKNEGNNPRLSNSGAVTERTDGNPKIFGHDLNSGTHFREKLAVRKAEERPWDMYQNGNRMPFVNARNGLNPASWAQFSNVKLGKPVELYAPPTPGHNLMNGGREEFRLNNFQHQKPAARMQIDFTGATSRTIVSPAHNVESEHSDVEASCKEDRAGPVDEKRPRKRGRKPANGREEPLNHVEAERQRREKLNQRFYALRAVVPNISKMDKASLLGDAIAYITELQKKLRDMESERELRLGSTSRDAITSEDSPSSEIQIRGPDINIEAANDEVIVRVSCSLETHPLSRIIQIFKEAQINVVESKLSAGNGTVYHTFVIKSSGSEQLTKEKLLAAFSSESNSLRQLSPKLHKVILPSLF
UniProt A0A3Q7HES4: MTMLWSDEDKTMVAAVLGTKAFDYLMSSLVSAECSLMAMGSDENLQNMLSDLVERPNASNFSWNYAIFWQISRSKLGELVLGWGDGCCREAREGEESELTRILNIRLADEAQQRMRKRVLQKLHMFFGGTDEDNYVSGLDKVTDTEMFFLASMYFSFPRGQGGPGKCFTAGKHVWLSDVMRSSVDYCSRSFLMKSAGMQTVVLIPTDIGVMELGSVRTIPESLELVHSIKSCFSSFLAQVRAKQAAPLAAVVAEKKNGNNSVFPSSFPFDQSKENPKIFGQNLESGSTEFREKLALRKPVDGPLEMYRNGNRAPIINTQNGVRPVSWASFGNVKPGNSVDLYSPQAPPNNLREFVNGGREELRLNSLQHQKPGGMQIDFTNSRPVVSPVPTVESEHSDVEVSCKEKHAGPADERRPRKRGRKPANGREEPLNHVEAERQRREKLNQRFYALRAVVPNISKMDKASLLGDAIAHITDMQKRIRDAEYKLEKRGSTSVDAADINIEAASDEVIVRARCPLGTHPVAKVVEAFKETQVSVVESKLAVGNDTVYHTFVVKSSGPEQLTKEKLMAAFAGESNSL
UniProt A0A3Q7H216: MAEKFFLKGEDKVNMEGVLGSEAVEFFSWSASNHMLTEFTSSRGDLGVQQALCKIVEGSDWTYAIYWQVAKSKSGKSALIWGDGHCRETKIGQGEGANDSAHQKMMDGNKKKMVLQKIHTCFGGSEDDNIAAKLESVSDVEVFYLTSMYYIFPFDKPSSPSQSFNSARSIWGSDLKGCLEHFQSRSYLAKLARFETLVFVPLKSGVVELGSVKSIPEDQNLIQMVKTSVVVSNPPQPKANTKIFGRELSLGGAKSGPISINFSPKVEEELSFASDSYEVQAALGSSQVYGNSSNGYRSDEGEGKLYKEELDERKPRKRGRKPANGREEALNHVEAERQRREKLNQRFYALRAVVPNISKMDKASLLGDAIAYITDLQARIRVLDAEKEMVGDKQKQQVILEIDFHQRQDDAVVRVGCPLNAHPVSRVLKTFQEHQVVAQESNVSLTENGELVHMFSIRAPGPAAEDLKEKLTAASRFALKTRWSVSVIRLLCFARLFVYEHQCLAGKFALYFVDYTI
UniProt A0A3Q7JC00: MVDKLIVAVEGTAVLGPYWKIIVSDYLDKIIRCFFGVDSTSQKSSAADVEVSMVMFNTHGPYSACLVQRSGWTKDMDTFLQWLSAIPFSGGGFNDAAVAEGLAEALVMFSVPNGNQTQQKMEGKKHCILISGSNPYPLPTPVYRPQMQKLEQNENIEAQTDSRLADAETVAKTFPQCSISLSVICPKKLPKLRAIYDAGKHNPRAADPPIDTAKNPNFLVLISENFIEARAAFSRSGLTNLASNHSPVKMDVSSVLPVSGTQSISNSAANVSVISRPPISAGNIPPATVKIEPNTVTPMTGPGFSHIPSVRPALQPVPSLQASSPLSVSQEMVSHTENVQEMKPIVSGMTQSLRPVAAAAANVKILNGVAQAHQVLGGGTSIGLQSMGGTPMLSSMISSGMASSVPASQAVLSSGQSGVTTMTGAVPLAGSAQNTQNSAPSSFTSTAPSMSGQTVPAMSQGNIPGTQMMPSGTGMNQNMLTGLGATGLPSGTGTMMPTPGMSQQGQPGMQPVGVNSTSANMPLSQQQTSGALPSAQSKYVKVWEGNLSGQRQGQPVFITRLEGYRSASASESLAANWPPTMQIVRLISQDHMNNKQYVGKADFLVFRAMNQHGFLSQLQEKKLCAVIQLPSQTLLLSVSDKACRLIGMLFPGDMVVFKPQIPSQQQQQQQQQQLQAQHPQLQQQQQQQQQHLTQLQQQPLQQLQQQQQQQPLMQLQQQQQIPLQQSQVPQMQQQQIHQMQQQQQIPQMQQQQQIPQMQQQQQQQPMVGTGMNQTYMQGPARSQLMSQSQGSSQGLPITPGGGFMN

Key:
[1] = target: ATG8a in pGBKT7 (yeast two-hybrid bait) (tomato (Solanum lycopersicum)) (UniProt F1JYZ5); experiment: two-hybrid; library screen: ATG8a in pGBKT7 as bait in yeast AH109, tomato cDNA library, colonies cultured on SD-Leu/Trp/Ade/His after mating
[2] = target: ATG8a in pGBKT7 (yeast two-hybrid bait) (tomato (Solanum lycopersicum)) (UniProt F1JYZ5); experiment: two-hybrid; mated colonies carrying pGBKT7-ATG8s and pGADT7-JAMs (or AIM mutants), transferred from SD-L/T to SD-L/T/A/H plates at different dilutions
[3] = target: ATG8d in pGBKT7 (yeast two-hybrid) (tomato (Solanum lycopersicum)); experiment: as above
[4] = target: ATG8f in pGBKT7 (yeast two-hybrid) (tomato (Solanum lycopersicum)) (UniProt F1JYZ6); experiment: as above
[5] = target: GST-ERF1 (tomato (Solanum lycopersicum)); experiment: pull-down; 1 ug purified GST-ERF1 and MBP-MED25 with increasing amounts of His-JAM1 or His protein; 25 mM Tris-HCl pH 7.5, 100 mM NaCl, 1 mM DTT, 4 C, 2 h; capture by GST, immunoblot with anti-MBP; both purified

| binding [1] | binding [2] | binding [3] | binding [4] | binding [5] | Substance |
| --- | --- | --- | --- | --- | --- |
| binds | binds | binds | binds | – | JASMONATE-ASSOCIATED MYC2-LIKE 1 (JAM1) in pGADT7 (yeast two-hybrid) (from UniProt A0A3Q7ELQ2 1-613) |
| – | binds | binds | binds | – | JASMONATE-ASSOCIATED MYC2-LIKE 2 (JAM2) in pGADT7 (yeast two-hybrid) (from UniProt A0A3Q7HES4 1-579) |
| – | binds | binds | binds | – | JASMONATE-ASSOCIATED MYC2-LIKE 3 (JAM3) in pGADT7 (yeast two-hybrid) (from UniProt A0A3Q7H216 1-517) |
| – | – | – | – | binds | MBP-MED25 (from UniProt A0A3Q7JC00 1-805) |

Results are given in words; binding and its absence hold for the method and conditions named. Binding calls can cover weak binding; strength is not graded here.
